Where two headings read alike, the source gives them in different places. No constants are given. Whether binding was seen depends on the method and setting. Some binding calls cover weakened binding; strength is not graded here.
Columns and labels:
Assay in all cases: crystal structure
[1] = molecular target: Staphylococcus aureus O-acetyl-L-serine sulfhydrylase (CysK) (S. aureus) (UniProt P63871)
[2] = molecular target: Staphylococcus aureus O-acetyl-L-serine sulfhydrylase (CysK) (S. aureus) (UniProt P63871); remark: listed apart in the source
[3] = molecular target: Staphylococcus aureus O-acetyl-L-serine sulfhydrylase (CysK) (S. aureus) (UniProt P63871); remark: listed apart in the source

Chains of the proteins cited; added tags and fusions are not shown.
UniProt P63871: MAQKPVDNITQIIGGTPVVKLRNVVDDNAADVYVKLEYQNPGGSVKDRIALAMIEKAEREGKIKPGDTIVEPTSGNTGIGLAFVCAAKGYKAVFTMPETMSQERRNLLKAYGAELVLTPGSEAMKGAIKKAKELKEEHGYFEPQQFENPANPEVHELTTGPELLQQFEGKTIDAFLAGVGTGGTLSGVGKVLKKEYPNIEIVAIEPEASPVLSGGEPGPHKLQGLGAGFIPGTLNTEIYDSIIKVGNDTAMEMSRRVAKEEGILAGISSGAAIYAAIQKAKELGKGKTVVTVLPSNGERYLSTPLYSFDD

Molecule	binding [1]	binding [2]	binding [3]
Staphylococcus aureus O-acetyl-L-serine sulfhydrylase (CysK) (from UniProt P63871 1-310) (enzyme)	binds	binds	
YMFYI [CymR 5]			binds
EDLDGYMFYI [CymR 10 (C-terminal decapeptide of S. aureus cysteine metabolism regulator CymR)]			binds

Source: publication doi:10.1101/2024.09.19.614015 (bioRxiv, 2024)
